In the test the test system is BDF1 mice, P388 leukemia ip, median survival T/C. Briefly: NCI In Vivo Anticancer Drug Screen. Data for tumor model P388 Leukemia (intraperitoneal) in B6D2F1 (BDF1) mice. The settings on record: T/C endpoint: median survival time, higher T/C = longer survival. In a few lines:
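In tumour-bearing mice, survival after compound treatment is set against the vehicle group and given as a quotient.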

The mark [1] stands for this setting: dose: 16.5 mg/kg/injection, schedule: Q01DX009 (ip), vehicle: saline.
Setting [2] is: dose: 50.0 mg/kg/injection, schedule: Q01DX009 (ip), vehicle: saline with Tween-80.
[3] abbreviates: dose: 300.0 mg/kg/injection, schedule: Q01DX009 (ip), vehicle: saline with Tween-80.
Setting [4] is: dose: 200.0 mg/kg/injection, schedule: Q01DX009 (ip), vehicle: saline with Tween-80.
The mark [5] stands for this setting: dose: 400.0 mg/kg/injection, schedule: Q01DX009 (ip), vehicle: saline with Tween-80.
The mark [6] stands for this setting: dose: 50.0 mg/kg/injection, schedule: Q01DX009 (ip), vehicle: saline.
Where [7] appears, read: dose: 3.12 mg/kg/injection, schedule: Q01DX009 (ip), vehicle: saline with Tween-80.
Where [8] appears, read: dose: 100.0 mg/kg/injection, schedule: Q01DX009 (ip), vehicle: saline with Tween-80.
The mark [9] stands for this setting: dose: 200.0 mg/kg/injection, schedule: Q01DX009 (ip), vehicle: Klucel (hydroxypropylcellulose) (HPC).
Setting [10] is: dose: 25.0 mg/kg/injection, schedule: Q01DX009 (ip), vehicle: saline.

The list is a part of this screen's results and no random one: it gathers tests that were run many times, whatever their T/C, doses with no T/C, and many T/C values between a quarter and a half above the control. Further doses and runs are listed elsewhere. T/C gives the treated animals as a percentage of the vehicle group. Some entries give survivors of the animals treated and no T/C: the source holds a T/C of zero for them, seemingly a mark for toxic or unscored doses. Some doses without a T/C left all or most animals alive at the check, yet need not have been tolerated: the source hardly ever lists a survival T/C far under the control, and the zero likely stands for such cases as well. Counts of survivors are from the toxicity check (mostly the fifth day) where no day follows; animals may have died later. Schedules are NCI's codes, taken here to give the interval after Q, in days (D) or hours (H), and the number of doses after X. Some molecules as drawn cover several salts, stereoisomers or complexes of the source; a dose is that of the sample tested. Some entries hold several experiments; the values are given in rising order. For survival time, the PubChem record calls one and a half times the control and up active, and a quarter to a half above the control has no call in these data; cut-offs in other NCI protocols can differ. Some T/C values are followed by the survivors on the day toxicity was checked, most often the fifth; without a count, all were alive then.

Take `CN(C)c1ccc(C(N)=O)cn1`: the survivor count is 6 of 6 (dose: 8.25 mg/kg/injection, schedule: Q01DX009 (ip), vehicle: saline); 6 of 6 (dose: 12.5 mg/kg/injection, schedule: Q01DX009 (ip), vehicle: saline with Tween-80); 6 of 6 under setting [1]; 5 of 6 (dose: 25.0 mg/kg/injection, schedule: Q01DX009 (ip), vehicle: saline with Tween-80); 4 of 6 under setting [2]. Under “dose: 27.0 mg/kg/injection, schedule: Q04DX003 (ip), vehicle: saline”, the T/C is 127 % of control.
With `CC(C)CNC(=S)N/N=C\C=N/NC(=S)NCC(C)C`, the survivor count under setting [3] is 7 of 7.
Consider `CC1(CNC(=O)C(=O)NCC2(C)CO2)CO1` (stereo not drawn), for which, where the note is “dose: 25.0 mg/kg/injection, schedule: Q04DX003 (ip), vehicle: saline with Tween-80”, the T/C is 129 % of control. Further, the survivor count was 4 of 6 under setting [4] and 3 of 6 under setting [5].
For `N#CSCc1ccc(CSC#N)c(Cl)c1`, for the setting “dose: 3.13 mg/kg/injection, schedule: Q01DX009 (ip), vehicle: saline with Tween-80”, the T/C is 136 % of control.
For `CCOC(=O)C(Cc1ccccc1Cl)(Cc1ccccc1Cl)c1ccccc1`, under setting [5], the T/C was 130 % of control.
As for `C=C[C@@](C)(O)CC/C=C(/C)CCC=C(C)C`, the survivor count is 2 of 6 under setting [4] and 1 of 6 under setting [5].
With `C[N+](C)(C)CCCSC1=NCCN1`, the survivor count under setting [6] was 0 of 6.
As for `C=CCOP(=O)(N1CC1C)N1CC1C` (stereo not drawn), the T/C is 146 % of control (dose: 33.0 mg/kg/injection, schedule: Q01DX009 (ip), vehicle: saline); 130 % of control (dose: 37.0 mg/kg/injection, schedule: Q01DX009 (ip), vehicle: saline); 142 and 146 % of control under setting [6]; 128 and 136 % of control (dose: 67.0 mg/kg/injection, schedule: Q04DX003 (ip), vehicle: saline). In addition, the survivor count is, setting by setting: (dose: 112.0 mg/kg/injection, schedule: Q01DX009 (ip), vehicle: saline) 6 of 6; (dose: 150.0 mg/kg/injection, schedule: Q01DX009 (ip), vehicle: saline) 6 of 6; (dose: 200.0 mg/kg/injection, schedule: Q04DX003 (ip), vehicle: saline) 6 of 6; (dose: 400.0 mg/kg/injection, schedule: Q04DX003 (ip), vehicle: saline) 5 of 6.
With `Cc1ccc(N2CC(=O)N3CCCN3C(=O)C2)cc1`, the survivor count (dose: 50.0 mg/kg/injection, schedule: Q01DX005 (ip), vehicle: saline with Tween-80) was 5 of 5; the survivor count (dose: 100.0 mg/kg/injection, schedule: Q01DX005 (ip), vehicle: saline with Tween-80) is given as 5 of 5; the survivor count (dose: 200.0 mg/kg/injection, schedule: Q01DX005 (ip), vehicle: saline with Tween-80) was 5 of 5.
For `O=C1OC(O)C(Cl)=C1Cl` (stereo not drawn), the T/C under setting [7] is 132 % of control.
As for `C1CC[CH]([Sn]([CH]2CCCCC2)[CH]2CCCCC2)CC1`, the survivor count under setting [7] is reported as 2 of 3.
For the molecule `Nc1ncnc2[nH]c(=O)[nH]c12`, the survivor count reads like this: under setting [2], 4 of 6; under setting [8], 3 of 6; (dose: 100.0 mg/kg/injection, schedule: Q04DX003 (ip), vehicle: saline with Tween-80) 4 of 6; under setting [4], 3 of 6; under setting [5], 3 of 6.
For `COc1cccc2c1C(=O)c1c(O)c3c(c(O)c1C2=O)C[C@@](O)(/C(C)=N\NC(=O)CO)C[C@@H]3OC1CC(N)C(O)C(C)O1` (stereo partly drawn), the T/C reads like this: (dose: 6.25 mg/kg/injection, schedule: Q04DX003 (ip), vehicle: saline) 139 % of control; (dose: 66.0 micrograms/kg/injection, schedule: Q01DX009 (ip), vehicle: saline) 144 % of control; (dose: 100.0 micrograms/kg/injection, schedule: Q01DX009 (ip), vehicle: saline) 142 % of control. Besides, the survivor count (dose: 12.5 mg/kg/injection, schedule: Q04DX003 (ip), vehicle: saline) is 6 of 6 and the survivor count (dose: 25.0 mg/kg/injection, schedule: Q04DX003 (ip), vehicle: saline) is recorded as 6 of 6.
For the molecule `O=C(O)c1c(Cl)c(Cl)c(Cl)c(Cl)c1C(=O)O.O=C(O)c1c(Cl)c(Cl)c(Cl)c(Cl)c1C(=O)O.[Pt]`, the T/C (dose: 100.0 mg/kg/injection, schedule: Q04DX003 (ip), vehicle: saline sonified) is 130 % of control.
As for `CCOC(=O)C(I)CC` (stereo not drawn), the survivor count (dose: 400.0 mg/kg/injection, schedule: Q01DX009 (ip), vehicle: water) is 0 of 6.
Turning to `CSc1cccc(NC(C)=O)c1`, the survivor count under setting [9] was 5 of 6.
In the case of `Cc1cccc(NC(=O)CCc2ccc(N3C(N)=NC(N)=NC3(C)C)cc2)c1`, the survivor count under setting [4] is 3 of 6. For the same molecule, the T/C under setting [3] is 131 % of control [5 of 6 alive].
Turning to `C=C1N(c2nc(Cl)nc(Cl)n2)c2ccccc2C1(C)C`, the survivor count is, setting by setting: under setting [2], 3 of 6; under setting [8], 2 of 6 and 3 of 6.
As for `O=C(CCCN1CCC(O)(c2cccc(C(F)(F)F)c2)CC1)c1ccc(F)cc1`, the survivor count (dose: 37.5 mg/kg/injection, schedule: Q04DX003 (ip), vehicle: Klucel (hydroxypropylcellulose) (HPC)) is recorded as 6 of 6; the survivor count (dose: 75.0 mg/kg/injection, schedule: Q04DX003 (ip), vehicle: Klucel (hydroxypropylcellulose) (HPC)) is recorded as 6 of 6; the survivor count (dose: 100.0 mg/kg/injection, schedule: Q01DX009 (ip), vehicle: Klucel (hydroxypropylcellulose) (HPC)) is 0 of 6; the survivor count (dose: 100.0 mg/kg/injection, schedule: Q04DX003 (ip), vehicle: Klucel (hydroxypropylcellulose) (HPC)) is listed as 3 of 6.
With `C[n+]1ccc(NC(=O)c2ccc(NC(=O)c3cccc(C(=O)Nc4ccc(C(=O)Nc5cc[n+](C)cc5)cc4)c3)cc2)cc1`, the survivor count (dose: 150.0 mg/kg/injection, schedule: Q04DX003 (ip), vehicle: saline with Tween-80) is 6 of 6.
In the case of `COc1cc(NCc2ccc3nc(N)nc(N)c3c2C)cc(OC)c1OC`, the T/C (dose: 2.5 mg/kg/injection, schedule: Q01DX009 (ip), vehicle: sodium bicarbonate) was 148 % of control and the T/C (dose: 25.0 mg/kg/injection, schedule: Q01DX009 (oral), vehicle: sodium bicarbonate) is 130 % of control. Moreover, the survivor count (dose: 80.0 mg/kg/injection, schedule: Q01DX009 (ip), vehicle: sodium bicarbonate) was 6 of 6; the survivor count under setting [8] was 10 of 10; the survivor count (dose: 200.0 mg/kg/injection, schedule: Q01DX009 (oral), vehicle: sodium bicarbonate) was 6 of 6; the survivor count (dose: 400.0 mg/kg/injection, schedule: Q01DX009 (oral), vehicle: sodium bicarbonate) is 6 of 6.
Regarding `Cc1cc(N(CCCl)CCCl)ccc1C=Nc1ccccc1-c1ccccc1`, the T/C is 133 % of control under setting [9]; 126 % of control (dose: 267.0 mg/kg/injection, schedule: Q01DX009 (ip), vehicle: Klucel (hydroxypropylcellulose) (HPC)); 125 % of control (dose: 400.0 mg/kg/injection, schedule: Q04DX003 (ip), vehicle: Klucel (hydroxypropylcellulose) (HPC)).
Turning to `CNNC(=O)NC`, the survivor count under setting [1] is listed as 6 of 6; the survivor count under setting [10] was 6 of 6; the survivor count (dose: 37.5 mg/kg/injection, schedule: Q01DX009 (ip), vehicle: saline) is on record as 5 of 6; the survivor count under setting [6] was 5 of 6; the survivor count (dose: 100.0 mg/kg/injection, schedule: Q01DX009 (ip), vehicle: saline) is recorded as 0 of 6. The T/C under setting [10] was 138 % of control.
Consider `CCNC(=S)N/N=C\C=N/NC(=S)NCC`, for which, for the setting “dose: 150.0 mg/kg/injection, schedule: Q01DX009 (ip), vehicle: saline with Tween-80”, the survivor count is reported as 7 of 7.
As to `O=P(NC12CC3CC(CC(C3)C1)C2)(N1CC1)N1CC1`, for the setting “dose: 4.4 mg/kg/injection, schedule: Q01DX009 (ip), vehicle: Klucel (hydroxypropylcellulose) (HPC)”, the T/C was 145 % of control. Moreover, under “dose: 15.0 mg/kg/injection, schedule: Q01DX009 (ip), vehicle: Klucel (hydroxypropylcellulose) (HPC)”, the survivor count was 6 of 6.

Values taken from PubChem BioAssay AID328 (DTP/NCI, 2004).
